Experimental data published in US7566787B2, “Small molecule cyclin D1 ablative agents” (The Ohio State University, priority 2004, dated 2009).
At least one structure is not confirmed: it was looked up by name or label, or the drawing left a doubt.

Assays:
Format in all cases: cell-based, human
[1] = test system: cyclin D1; assay: Western blot analysis of cyclin D1 expression in MCF-7 cells; details: high doses / comparable concentrations
Method: (§1) Western Blot Analysis. MCF-7 or MDA-MB-231 cells were seeded in 10% FBS-containing DMEM-F-12 for 24 h and treated with various agents as indicated. After individual treatments for 24 h, both the incubation medium and adherent cells in T-25 or T-75 flasks were scraped and collected by centrifugation at 2,000×g for 10 min. The pellets were recovered, placed on ice, and triturated with 20 to 50 μl of a chilled lysis buffer (M-PER® Mammalian Protein Extraction Reagent, Pierce, Rockford, Ill.) to which was added 1% protease inhibitor cocktail (set III, EMD Biosciences, Inc. San Diego, Calif.). After a 30 min-incubation on ice, the mixture was centrifuge at 16,100×g for 3 min. Two μl of the suspension was taken for protein analysis using the Bradford assay kit (Bio-Rad, Hercules, Calif.). To the remaining solution was added the same volume of 2× SDS-PAGE sample loading buffer (100 mM Tris-HCl, pH 6.8, 4% SDS, 5% β-mercaptoethanol 20% glycerol, and 0.1% bromophenol blue). The mixture was boiled for 10 min. Equal amounts of proteins were loaded onto 10% SDS-PAGE gels. After electrophoresis, protein bands were transferred to nitrocellulose membranes in a semi-dry transfer cell. The transblotted membrane was blocking with TBST [Tris-buffered saline (TBS) containing 0.1% Tween 20] containing 5% nonfat milk for 90 min, and the membrane was incubated with the appropriate primary antibody in TBST-5% nonfat milk at 4° C. overnight. After washing three times with TBST for a total of 45 min, the transblotted membrane was incubated with goat anti-rabbit or anti-mouse IgG-horseradish peroxidase conjugates (diluted 1:1000) for 1 h at room temperature and washed four times with TBST for a total of 1 h. The immunoblots were visualized by enhanced chemiluminescence.

[2] = test system: ERα; assay: Western blot analysis of ERα expression in MCF-7 cells; details: 24 h
Method: as §1, with “The transblotted membrane was blocking with TBST [Tris-buffered saline (TBS) containing 0.1% Tween 20] containing 5% nonfat milk for 90 min, and the membrane was incubated with the appropriate primary antibody in TBST-5% nonfat milk at 4° C. overnight. After washing three times with TBST for a total of 45 min, the transblotted membrane was incubated with goat anti-rabbit or anti-mouse IgG-horseradish peroxidase conjugates (diluted 1:1000) for 1 h at room temperature and washed four times with TBST for a total of 1 h. The immunoblots were visualized by enhanced chemiluminescence.” left out

[3] = test system: cyclin D1; assay: Western blot analysis of cyclin D1 expression in MDA-MB-231 cells; details: 24 h, 5% FBS
[4] = test system: cyclin D1 gene mRNA; assay: RT-PCR analysis of mRNA transcripts of cyclin D1 gene in MCF-7 cells; details: 24 h exposure, 40 μM TG, 30 μM Δ2-TG
Method: Reverse transcriptase (RT-) PCR analysis of mRNA transcripts of cyclin D1 gene. MCF7 cells were subject to total RNA isolation by using RNeasy mini kit (Qiagen, Valencia, Calif.). RNA concentrations and quality were assessed spectrophotometrically by measuring absorption at 260 nm. Aliquots of 20 μg of total RNA from each sample was reverse transcribed to cDNA using Omniscript RT Kit (Qiagen) according to manufacturer's instructions. The primers used were as follows: cyclin D1, forward, 5′-[…]-3′, reverse, 5′-[…]-3′; β-actin, forward, 5′-[…]-3′, reverse, 5′-[…]-3′. The reaction conditions were as follows: for cyclin D1 (a) initial denaturation at 95° C. for 5 min; (b) 34 cycles of amplification (95° C. for 1 min, 65° C. for 1 min 45 s, and 72° C. for 1 min); and (c) a final extension step of 10 min at 72° C.; for β-actin (a) initial denaturation at 95° C. for 3 min; (b) 40 cycles of amplification (95° C. for 30 s, 58° C. for 20 s, and 72° C. for 45 s); and (c) a final extension step of 10 min at 72° C.

[5] = test system: GSK-3β; assay: Western blot of GSK-3β phosphorylation in MCF-7 cells; details: different doses
Method: as §1, with “The transblotted membrane was blocking with TBST [Tris-buffered saline (TBS) containing 0.1% Tween 20] containing 5% nonfat milk for 90 min, and the membrane was incubated with the appropriate primary antibody in TBST-5% nonfat milk at 4° C. overnight. After washing three times with TBST for a total of 45 min, the transblotted membrane was incubated with goat anti-rabbit or anti-mouse IgG-horseradish peroxidase conjugates (diluted 1:1000) for 1 h at room temperature and washed four times with TBST for a total of 1 h. The immunoblots were visualized by enhanced chemiluminescence.” left out

[6] = test system: cyclins D2, D3, A, B, and E, and cyclin-dependent kinases (CDKs) 2 and 4; assay: Western blot of other cyclins and CDKs in MCF-7 cells; details: different doses, 24 h
Method: as §1, with “The transblotted membrane was blocking with TBST [Tris-buffered saline (TBS) containing 0.1% Tween 20] containing 5% nonfat milk for 90 min, and the membrane was incubated with the appropriate primary antibody in TBST-5% nonfat milk at 4° C. overnight. After washing three times with TBST for a total of 45 min, the transblotted membrane was incubated with goat anti-rabbit or anti-mouse IgG-horseradish peroxidase conjugates (diluted 1:1000) for 1 h at room temperature and washed four times with TBST for a total of 1 h. The immunoblots were visualized by enhanced chemiluminescence.” left out

[7] = test system: ubiquitinated cyclin D1; assay: Coimmunoprecipitation/Western blot of cyclin D1 ubiquitination in MCF-7 cells; details: 30 μM TG or 20 μM Δ2-TG, 20 h
Method: Coimmunoprecipitation/Western Blot. MCF-7 cells were cultured in 10% FBS-containing DMEM-F-12 in 75-mm plates for 24 h. Cell were treated with DMSO vehicle, 30 μM TG, or 20 μM Δ2-TG in 5% FBS-containing DMEM-F12 medium for another 20 hours. Cells were rinsed with PBS at room temperature, scraped off the flask, transferred into centrifuge tubes, and centrifuged at 2,000×g for 10 min to pellet the cells. […] These cell lysates were treated with 100 μl of protein A-agarose bead slurry, followed by brief centrifugation, to remove nonspecific binding proteins. Equal amounts of proteins from these lysates, as determined by the Bradford assay, were mixed with anti-cyclin D1 in an orbital shaker at 23° C. for 2 h, followed by 100 μl of protein A-agarose bead slurry at 4° C. for 12 h. The immunocomplex was collected by brief centrifugation, washed 4 times with 800 μl of ice-cold RIPA buffer, and suspended in 50 μl of the aforementioned 2× SDS sample loading buffer. The suspension was boiled for 10 min, cooled, and briefly centrifuged to remove the beads. Western blot analysis was performed with anti-cyclin D1 or anti-ubiquitin as described above.

CC1(COc2ccc(CC3SC(=O)NC3=O)cc2)CCCCC1 (centres unmarked) [CG, ciglitazone, reference compound]
effect on cyclin D1 expression [1]: effective in reducing
effect on ERα expression [2]: effective in reducing

CCc1ccc(CCOc2ccc(CC3SC(=O)NC3=O)cc2)nc1 (centres unmarked) [PG, pioglitazone, reference compound]
effect on cyclin D1 expression [1]: lacked appreciable effects

CN(CCOc1ccc(CC2SC(=O)NC2=O)cc1)c1ccccn1 (centres unmarked) [RG, rosiglitazone, reference compound]
effect on cyclin D1 expression [1]: lacked appreciable effects

Cc1c(C)c2c(c(C)c1O)CCC(C)(COc1ccc(CC3SC(=O)NC3=O)cc1)O2 (centres unmarked) [TG, troglitazone, reference compound]
susceptibility of MDA-MB-231 cells to TG-mediated cyclin D1 ablation, compared with MCF-7 [3]: less susceptible
mRNA level of cyclin D1 [4]: remained unaltered
GSK-3β phosphorylation level [5]: remained unaltered
effect on cyclin D1 expression [1]: effective in reducing
expression level of cyclin D2 and CDK4 [6]: slight decrease
expression level of the other cyclins and CDKs (D3, A, B, E, CDK2) [6]: no appreciable effect
extent of ubiquitination of cyclin D1 [7]: increased
